{
  "sequences": {"note": "By UniProt entry, the sequences of proteins in these tests, tags left out. Where a name states a change or a piece, a line headed by the entry shows the natural chain unless it says otherwise.", "UniProt P11473": "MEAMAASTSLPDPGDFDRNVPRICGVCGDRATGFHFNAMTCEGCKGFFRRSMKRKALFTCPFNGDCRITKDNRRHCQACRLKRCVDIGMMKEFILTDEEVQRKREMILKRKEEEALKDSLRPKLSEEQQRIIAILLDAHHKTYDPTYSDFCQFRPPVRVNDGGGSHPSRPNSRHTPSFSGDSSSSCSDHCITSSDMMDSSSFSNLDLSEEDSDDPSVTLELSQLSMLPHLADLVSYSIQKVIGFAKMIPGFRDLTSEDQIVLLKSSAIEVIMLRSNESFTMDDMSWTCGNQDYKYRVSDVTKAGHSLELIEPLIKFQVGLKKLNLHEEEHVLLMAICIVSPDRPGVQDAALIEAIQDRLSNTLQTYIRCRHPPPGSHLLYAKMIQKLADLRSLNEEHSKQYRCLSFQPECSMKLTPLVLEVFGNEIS"},
  "source": "PubChem BioAssay AID504847",
  "about": "(National Center for Advancing Translational Sciences (NCATS), 2011)",
  "note": "The campaign covered roughly 400,000 compounds. About 3,700 (0.93%) were called active. Inconclusive results, whose numbers are uncertain, are shown with a selection of clear calls. Calls come from the whole dose curve; as a rule, active = well fitted inhibition curve with a large enough effect; inconclusive = small, poorly fitted or top-dose-only effect, or another doubt; inactive = no such curve, though single readings can be large or run the other way. A potency beside an inconclusive call is a rough fit, not a confirmed value. % is set by controls: 0 for no effect and ±100 for the full control effect; potency is the fitted concentration of half-maximal effect.",
  "data": [
    {"molecular_target": "Vitamin D3 receptor (Homo sapiens) (UniProt P11473)", "test": "Inhibitors of the vitamin D receptor (VDR): qHTS", "conditions": "VDR-SRC2-3 peptide fluorescence polarization, 2 h; max response, negative = inhibition: active compounds read low", "outline": "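Reagent solutions, kept cold and dark, are dispensed first; compounds are then pinned in at 23 nl, plates briefly spun, and incubated 2 h at ambient temperature. Inhibition of VDR–SRC2-3 peptide binding is read by fluorescence polarization.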", "values": [
      {"smiles": "C/C(CCC12CC3CC(CC(C3)C1)C2)=N\\NC(N)=S", "Potency": "inconclusive: 89.1 µM [inhibitor, partial curve, poor fit]"},
      {"smiles": "COc1ccc(C(=O)N2CCC(C(=O)Nc3ccc(OC)cc3OC)CC2)cc1", "max response, negative = inhibition": "inactive: 1.81%"},
      {"smiles": "O=C(COC(=O)Cn1nnc2ccccc21)Nc1ccccc1Br", "Potency": "inconclusive: 79.4 µM [inhibitor, single point]"},
      {"smiles": "C/C(=N\\Nc1ncc(Cl)cc1Cl)c1ccccn1", "Potency": "inconclusive: 89.1 µM [inhibitor, single point]"},
      {"smiles": "CCOC(=O)C(C)Sc1nnc(Cc2cc(=O)[nH]c(=O)[nH]2)n1-c1ccc(Cl)cc1", "note": "(stereo unspecified)", "Potency": "inconclusive: 79.4 µM [inhibitor, partial curve]"},
      {"smiles": "COc1ccc(-c2csc3nc(-c4cccnc4)nc(Cl)c23)cc1OC", "Potency": "inconclusive: 89.1 µM [inhibitor, single point]"},
      {"smiles": "NC(=O)c1cc2nc(-c3ccco3)cc(C(F)(F)F)n2n1", "max response, negative = inhibition": "inactive: 15.5%"},
      {"smiles": "CSc1ccccc1NC(=O)CCS(=O)(=O)c1nc(-c2cccs2)cc(C(F)(F)F)n1", "Potency": "inconclusive: 22.4 µM [inhibitor, full curve, poor fit]"},
      {"smiles": "O=C(N/N=C/c1cc([N+](=O)[O-])cc([N+](=O)[O-])c1O)/C(=C\\c1cccs1)NC(=O)c1ccccc1", "max response, negative = inhibition": "inactive: -6.57%"},
      {"smiles": "Cc1[nH]n2c(=O)cc(C(C)C)nc2c1-c1ccccc1", "Potency": "inconclusive: 15.8 µM [inhibitor, partial curve]"},
      {"smiles": "COC(=O)c1c(-c2cccs2)csc1NC(=O)c1cc(OC)cc(OC)c1", "Potency": "inconclusive: 39.8 µM [inhibitor, single point]"},
      {"smiles": "Fc1ccccc1Cn1nnc2c(-n3ccnc3)ncnc21", "Potency": "inconclusive: 79.4 µM [inhibitor, partial curve, poor fit]"},
      {"smiles": "O=C1C=CC[C@H](/C=C/C[C@@H](O)C[C@H](O)CCc2ccccc2)O1", "Potency": "inconclusive: 89.1 µM [inhibitor, partial curve, poor fit]"},
      {"smiles": "CS(=O)(=O)c1sc(C#N)c2c1C(=O)CC(c1ccccc1)C2", "note": "(stereo unspecified)", "Potency": "active: 14.1 µM"},
      {"smiles": "Cc1ccc(C(=O)Nc2nc3ccccc3c(=O)s2)cc1", "Potency": "inconclusive: 56.2 µM [inhibitor, partial curve, poor fit]"},
      {"smiles": "CC(=O)c1ccc(NC(=O)CSc2nnc(C3CC3)n2C2CC2)cc1", "max response, negative = inhibition": "inactive: -1.61%"},
      {"smiles": "CC1=Nn2c(nnc2C2CCCCC2)SC1", "max response, negative = inhibition": "inactive: -15.4%"},
      {"smiles": "NC(=O)c1c(/N=C/c2cccs2)sc2c1CCCC2", "Potency": "inconclusive: 89.1 µM [inhibitor, partial curve, poor fit]"},
      {"smiles": "CN1CCC(N(C)C(=S)Nc2ccc(SC(F)F)cc2)CC1", "Potency": "inconclusive: 56.2 µM [inhibitor, partial curve, poor fit]"},
      {"smiles": "COc1ccc(NS(=O)(=O)c2cc(NC(=O)c3cnc(C)cn3)ccc2N2CCCC2)cc1", "Potency": "inconclusive: 35.5 µM [inhibitor, partial curve, poor fit]"},
      {"smiles": "c1ccc(-c2ccc(N3CC[C@@]4(CCCNC4)C3)cc2)cc1", "Potency": "inconclusive: 89.1 µM [inhibitor, single point]"},
      {"smiles": "Cc1cc(C(=O)Nc2ccccc2C)n(-c2ccccc2)n1", "Potency": "inconclusive: 89.1 µM [inhibitor, single point]"},
      {"smiles": "CCOc1ccc(NC(=O)C(=O)NCCN2CCN(S(=O)(=O)c3ccccc3)CC2)cc1", "Potency": "inconclusive: 70.8 µM [inhibitor, partial curve]"},
      {"smiles": "COc1ccc(OCC(=O)Nc2ccc3c(c2)n(C)c(=O)n3C)cc1", "Potency": "inconclusive: 1.26 µM [inhibitor, full curve, poor fit]"},
      {"smiles": "CCc1cccc(C)c1Nc1c(-c2ccc(N(C)C)cc2)nc2ncccn12", "Potency": "inconclusive: 56.2 µM [inhibitor, partial curve, poor fit]"},
      {"smiles": "COc1cc(C2C(C(=O)c3ccco3)=C(O)C(=O)N2Cc2cccnc2)cc(OC)c1OC", "note": "(stereo unspecified)", "max response, negative = inhibition": "inactive: 1.1%"},
      {"smiles": "O=C(NC1CCCCCC1)C(=S)NCCc1ccccc1", "Potency": "inconclusive: 89.1 µM [inhibitor, single point]"},
      {"smiles": "COC(=O)CCCC1=CC2=C(c3ccccc3)C(=O)C(C)(OC(=O)C3CCCC3)C(=O)C2=CN1CC(C)C", "note": "(stereo unspecified)", "Potency": "inconclusive: 89.1 µM [inhibitor, partial curve, poor fit]"},
      {"smiles": "COc1cccc(NC(=O)CSc2nc3c(sc4ccccc43)c(=O)n2CCN(C)C)c1", "Potency": "inconclusive: 89.1 µM [inhibitor, single point]"},
      {"smiles": "CN1c2ccsc2C(O)=C(C(=S)Nc2ccc(F)c(Cl)c2)S1(=O)=O", "Potency": "inconclusive: 39.8 µM [inhibitor, full curve, poor fit]"},
      {"smiles": "CCN1C(=O)/C(=C\\c2ccc(-c3ccc([N+](=O)[O-])cc3OC)o2)SC1=Nc1cccc(C(=O)O)c1", "Potency": "inconclusive: 89.1 µM [inhibitor, single point]"},
      {"smiles": "COc1ccccc1-c1ccc2ncnc(NCCN3CCOCC3)c2c1", "Potency": "inconclusive: 50.1 µM [inhibitor, partial curve]"},
      {"smiles": "N#CC1=C(SCc2ccccc2)NC(=O)CC1c1ccccc1", "note": "(stereo unspecified)", "max response, negative = inhibition": "inactive: -4.44%"},
      {"smiles": "CCNC(=O)CCSc1nnc(-c2ccc(O)cc2)o1", "Potency": "inconclusive: 89.1 µM [inhibitor, single point]"},
      {"smiles": "CCNC(=O)NC(=O)CSc1ccc(S(=O)(=O)N(C)C2CCCCC2)cn1", "Potency": "inconclusive: 89.1 µM [inhibitor, single point]"},
      {"smiles": "CCCCn1c(N)c(N(CC(C)C)C(=O)CSc2ccc([N+](=O)[O-])cc2)c(=O)[nH]c1=O", "Potency": "inconclusive: 89.1 µM [inhibitor, single point]"},
      {"smiles": "CCOC(=O)CSC1=NC(=O)/C(=C\\c2ccc(OC(C)=O)cc2)S1", "Potency": "active: 20 µM"},
      {"smiles": "CC1CCc2nn(CC(=O)NCc3ccc(F)cc3)cc2C1", "note": "(stereo unspecified)", "max response, negative = inhibition": "inactive: -14%"},
      {"smiles": "CC(C)CN1CCC2(CC1)CCN(C(=O)c1ccco1)CC2", "max response, negative = inhibition": "inactive: 0.73%"},
      {"smiles": "CCN(CC)C(=O)c1sc(NC(=O)c2cccc([N+](=O)[O-])c2)c(C#N)c1C", "max response, negative = inhibition": "inactive: 3.89%"},
      {"smiles": "O=c1cc(CSc2ccc(Cl)cc2)[nH]c2[nH]n(-c3ccccc3)c(=O)c12", "Potency": "inconclusive: 100 µM [inhibitor, single point]"}
    ]}
  ]
}
